These are yes or no findings as the source states them, for the method shown. In cells and extracts the contact can be indirect. A result given as binding can be weak or reduced; the word gives no strength.
B1: SAM50 (mouse, endogenous in MEFs) (protein, UniProt Q8BGH2 1-469)
chain: MGTVHARSLEPLPSSGTDFGALGEEAEFVEVEPEAKQEILENKDVVVQHVHFDGLGRTKDDIIICEIGEVFKAKNLIEVMRRSHEAREKLLRLGIFRQVDVLIDTCHGEDALPNGLDVTFEVTELRRLTGSYNTMVGNNEGSMVLGLKLPNLLGRAEKVTFQFSYGTKETSYGLSFFKPQPGNFERNFSVNLYKVTGQFPWSSLRETDRGVSAEYSFPLWKTSHTVKWEGVWRELGCLSRTASFAVRKESGHSLKSSLSHAMVIDSRNSSILPRRGALFKVNQELAGYTGGDVSFIKEDFELQLNKPLALDSVFSTSLWGGMLVPIGDKPSSIADRFYLGGPTSVRGFSMHSIGPQSEGDYLGGEAYWAGGLHLYTPLPFRPGQGGFGELFRTHFFLNAGNLCNLNYGEGPKAHIRKLAECIRWSYGAGVVLRLGNIARLELNYCIPMGVQGGDRICDGVQFGAGIRFL
B2: GRA7 (Toxoplasma gondii parasite protein) (protein, UniProt O00933 27-236)
chain: ATASDDELMSRIRNSDFFDGQAPVDSLRPTNAGVDSKGTDDHLTTSMDKASVESQLPRREPLETEPDEQEEVHFRKRGVRSDAEVTDDNIYEEHTDRKVVPRKSEGKRSFKDLLKKLALPAVGMGASYFAADRLVPELTEEQQRGDEPLTTGQNVGTVLGFAALAAAAAFLGMGLTRTYRHFSPRKNRSRQPALEQEVPESGEDGEDARQ
B3: SAM50 (human, endogenous in HeLa) (protein, UniProt Q9Y512 1-469)
chain: MGTVHARSLEPLPSSGPDFGGLGEEAEFVEVEPEAKQEILENKDVVVQHVHFDGLGRTKDDIIICEIGDVFKAKNLIEVMRKSHEAREKLLRLGIFRQVDVLIDTCQGDDALPNGLDVTFEVTELRRLTGSYNTMVGNNEGSMVLGLKLPNLLGRAEKVTFQFSYGTKETSYGLSFFKPRPGNFERNFSVNLYKVTGQFPWSSLRETDRGMSAEYSFPIWKTSHTVKWEGVWRELGCLSRTASFAVRKESGHSLKSSLSHAMVIDSRNSSILPRRGALLKVNQELAGYTGGDVSFIKEDFELQLNKQLIFDSVFSASFWGGMLVPIGDKPSSIADRFYLGGPTSIRGFSMHSIGPQSEGDYLGGEAYWAGGLHLYTPLPFRPGQGGFGELFRTHFFLNAGNLCNLNYGEGPKAHIRKLAECIRWSYGAGIVLRLGNIARLELNYCVPMGVQTGDRICDGVQFGAGIRFL

Columns and labels:
[1] = biological target: N-terminally HA-tagged MAF1b exogenously expressed in mouse embryonic fibroblasts (Toxoplasma gondii); test: co-IP; anti-HA beads with lysates of MEFs ± HA-MAF1b as for the first IPs; low-pH elution; Western blot
[2] = biological target: N-terminally HA-tagged MAF1b expressed off the MAF1b promoter in type I RH tachyzoites (Toxoplasma gondii); test: co-IP; anti-HA beads with lysates of HeLa cells infected 16 to 24 h with RH::NHA-MAF1b, RH::MAF1b-CHA or parental RH (or uninfected); low-pH elution; Western blot

| Binder | binding [1] | binding [2] |
| --- | --- | --- |
| B1 | binds | – |
| B2 | – | no binding |
| B3 | – | binds |

— PMC5444011
